In patent US9546381B2, “Use of anticoagulants in the production of recombinant proteins in the milk of transgenic animals” (priority 2010, dated 2017):
Where “and” joins values, the source holds several entries; their conditions need not be identical. Identical values can stand only once.

Assay: Amount of milk produced by warfarin-treated transgenic heifers
Format: in vivo, cattle
Details: lines = day, warfarin started on day 1

CC(=O)CC(c1ccccc1)c1c(O)c2ccccc2oc1=O (stereo not drawn) [warfarin]
Amount of milk (heifer 462): 12 lbs and 13 lbs and 9.5 lbs and 14 lbs and 13.5 lbs
Amount of milk (heifer 463): 4 lbs and 4.5 lbs and 5 lbs and 5.5 lbs and 6 lbs and 6.5 lbs
Amount of milk (heifer 474): 9.5 lbs and 8 lbs and 9 lbs and 7.5 lbs and 8.5 lbs
